Where a SMILES comes first, the peptide text is derived from it.
System: Botrytis cinerea
Test: Antimicrobial bioassay (Botrytis cinerea): growth inhibition by OD600
Assay type: cell-based
Conditions: COG = Cost of goods, yield improvement times the activity improvement, relative to NCR13a
Protocol: The antimicrobial effect of the NCR13 variant peptides (NVPs) of the present disclosure were evaluated against the fungal species, Botrytis cinerea. […] The growth of Botrytis cinerea was then assessed via OD600 nm after incubation with a given NVP at room temperature after 96 hours. The IC50 of each peptide analyzed is shown in ppm.
The antimicrobial effect of the NCR13 variant peptides (NVPs) of the present disclosure were evaluated against the fungal species, Botrytis cinerea. […] The growth of Botrytis cinerea was then assessed via OD600 nm after incubation with a given NVP at room temperature after 96 hours.
The NVPs assessed were as follows: NVPM3 (+L) (SEQ ID NO: 5); NVPM5 (+M) (SEQ ID NO: 7); NVPM6 (+F) (SEQ ID NO: 8); NVPM7 (+W) (SEQ ID NO: 9); NVPM9 (+S) (SEQ ID NO: 11); NVPM11 (+Y) (SEQ ID NO: 13); NVPM14 (+D) (SEQ ID NO: 16); and NVPM15 (+E) (SEQ ID NO: 17).
NVPs having an amino acid sequence of SEQ ID NOs: 5, 7, 8, 9, 11, 13, 16, and 17 were generated as described above in Example 1. The peptide, NCR13a, having an amino acid sequence of: […] (SEQ ID NO: 2) was selected as a comparator peptide, with which the antifungal activity of the foregoing NVPs was compared.
The fungal species was Botrytis cinerea was cultured in potato dextrose agar plates. Fungal spores were collected from the agar plates and suspended into de-ionized water, followed by enumeration in a Petroff-Hausser counting chamber (VWR).
The 96-well plates were incubated at room temperature for 96 hours without shaking. The OD600 of the culture plate was determined using SpectraMax plate reader. Relative OD600 was determined by normalizing cell growth to control wells containing neither NVPs nor NCR13a. The OD600 was used to determine IC50.

Row | SMILES | COG Improvement
1 | CC[C@H](C)[C@H](NC(=O)[C@H](CS)NC(=O)[C@H](CCCCN)NC(=O)[C@@H]1CCCN1C(=O)[C@@H](NC(=O)[C@H](CCCCN)NC(=O)[C@@H]1CCCN1C(=O)[C@H](CCCCN)NC(=O)[C@H](CCCNC(=N)N)NC(=O)[C@H](CS)NC(=O)[C@H](C)NC(=O)[C@H](Cc1ccccc1)NC(=O)[C@H](CCCCN)NC(=O)[C@H](CCCCN)NC(=O)[C@H](CS)NC(=O)[C@H](CC(=O)O)NC(=O)[C@H](CCCCN)NC(=O)[C@H](CC(=O)O)NC(=O)[C@H](CO)NC(=O)[C@H](CCC(N)=O)NC(=O)[C@H](CS)NC(=O)[C@@H]1CCCN1C(=O)[C@H](CCCCN)NC(=O)[C@@H](NC(=O)[C@@H](N)CC(=O)O)[C@@H](C)O)C(C)C)C(=O)N[C@@H](CC(N)=O)C(=O)NCC(=O)N[C@@H](Cc1ccccc1)C(=O)N[C@@H](CS)C(=O)N[C@@H](CCCCN)C(=O)N[C@@H](CS)C(=O)N[C@H](C(=O)N[C@@H](CCCNC(=N)N)C(=O)O)C(C)C [NVPM14] (H-DTKPCQSDKDCKKFACRKPKVPKCINGFCKCVR-OH; N-terminus and C-terminus assumed) | 2.57
2 | CC[C@H](C)[C@H](NC(=O)[C@H](CS)NC(=O)[C@H](CCCCN)NC(=O)[C@@H]1CCCN1C(=O)[C@@H](NC(=O)[C@H](CCCCN)NC(=O)[C@@H]1CCCN1C(=O)[C@H](CCCCN)NC(=O)[C@H](CCCNC(=N)N)NC(=O)[C@H](CS)NC(=O)[C@H](C)NC(=O)[C@H](Cc1ccccc1)NC(=O)[C@H](CCCCN)NC(=O)[C@H](CCCCN)NC(=O)[C@H](CS)NC(=O)[C@H](CC(=O)O)NC(=O)[C@H](CCCCN)NC(=O)[C@H](CC(=O)O)NC(=O)[C@H](CO)NC(=O)[C@H](CCC(N)=O)NC(=O)[C@H](CS)NC(=O)[C@@H]1CCCN1C(=O)[C@H](CCCCN)NC(=O)[C@@H](NC(=O)[C@@H](N)CCC(=O)O)[C@@H](C)O)C(C)C)C(=O)N[C@@H](CC(N)=O)C(=O)NCC(=O)N[C@@H](Cc1ccccc1)C(=O)N[C@@H](CS)C(=O)N[C@@H](CCCCN)C(=O)N[C@@H](CS)C(=O)N[C@H](C(=O)N[C@@H](CCCNC(=N)N)C(=O)O)C(C)C [NVPM15] (H-ETKPCQSDKDCKKFACRKPKVPKCINGFCKCVR-OH; N-terminus and C-terminus assumed) | 2.11

From patent US11713341B1, “Antimicrobial NCR13 variant peptides” (Vestaron Corporation, priority 2022, dated 2023)
